In US20230055705A1, “SUBSTITUTED THIOPHENE CARBOXAMIDES AND DERIVATIVES THEREOF” (Bayer Aktiengesellschaft, priority 2019, published 2023):
The name of at least one read-out is uncertain. Some entries share one result that the patent states for a list of compounds.

Assays:
[1] = tested on: Xanthomonas campestris pv. campestris; assay: In vivo preventive test on Xanthomonas campestris pv. campestris (black rot on cabbage); conditions: evaluated 8 or 10 days after inoculation
Protocol: The tested active ingredients were prepared by homogenization in a mixture of acetone/Dimethyl sulfoxide/Tween®, and then diluted with water to obtain the desired active material concentration.
The young plants of cabbage were treated by spraying the active ingredient prepared as described above. Control plants were treated only with an aqueous solution of acetone/Dimethyl sulfoxide/Tween®.
After 72 hours, the plants were contaminated by spraying the leaves with an aqueous bacteria suspension of Xanthomonas campestris pv. campestris. The contaminated cabbage plants were incubated for 8 or 10 days at 27° C. at 95% relative humidity.
The test was evaluated 8 or 10 days after the inoculation. 0% means an efficacy which corresponds to that of the control plants while an efficacy of 100% means that no disease was observed. […]
Compounds CMP1, CMP2, CMP3 and CMP4 were tested in an in vivo preventive test on Xanthomonas campestris pv. campestris (black rot on cabbage) in the same conditions as described in Example H.

Peronospora parasitica = assay: In vivo preventive test on Peronospora parasitica (Crucifer downy mildew); conditions: 500 ppm of active ingredient, cabbage, evaluated 5 days after inoculation
Protocol: (§1) The tested active ingredients were prepared by homogenization in a mixture of acetone/Dimethyl sulfoxide/Tween®, and then diluted with water to obtain the desired active material concentration. The young plants of cabbage were treated by spraying the active ingredient prepared as described above. Control plants were treated only with an aqueous solution of acetone/Dimethyl sulfoxide/Tween®.
After 72 hours, the plants were contaminated by spraying the leaves with an aqueous suspension of Peronospora parasitica spores. The contaminated cabbage plants were incubated for 5 days at 20° C. and at 100% relative humidity.
The test was evaluated 5 days after the inoculation. 0% means an efficacy which corresponds to that of the control plants while an efficacy of 100% means that no disease was observed.
Compounds CMP2 and CMP3 were tested in an in vivo preventive test on Peronospora parasitica (Crucifer downy mildew) in the same conditions as described in Example G.

[2] = tested on: Colletotrichum lindemuthianum; assay: In vivo preventive test on Colletotrichum lindemuthianum (Antrachnose on bean); conditions: 31 ppm of active ingredient, inoculation 72 h after spraying, evaluated 6 days after inoculation, listed as 1.119
Protocol: as §1, with “bean” for “cabbage”
After 72 hours, the plants were contaminated by spraying the leaves with an aqueous suspension of Colletotrichum lindemuthianum spores. The contaminated bean plants were incubated for 24 hours at 20° C. and at 100% relative humidity and then for 5 days at 20° C. and at 90% relative humidity. The test was evaluated 6 days after the inoculation. 0% means an efficacy which corresponds to that of the control plants while an efficacy of 100% means that no disease was observed.
Compound CMP1 was tested in an in vivo preventive test on Colletotrichum lindemuthianum (Antrachnose on bean) in the same conditions as described in Example F.

Structure (SMILES)	efficacy (Peronospora parasitica)	efficacy ([1]; 125 ppm of active ingredient)	further results
CNC(=O)[C@@H](NC(=O)c1sc(Cl)c(Cl)c1Cl)C(C)C [I.096]	–	–	efficacy ([1]; 125 ppm of active ingredient, listed as I1.096): 70%
CCOC(=O)C(Cc1c[nH]c2ccccc12)NC(=O)c1sc(Cl)c(Cl)c1Cl (stereo not drawn) [I.013]	70%	70%	–
C[C@H](NC(=S)c1sc(Cl)c(Cl)c1Cl)C(=O)O [I.113]	–	–	efficacy ([1]; 31 ppm of active ingredient, listed as 1.113): at least 80%
CCOC(=O)C(CSC)NC(=O)c1sc(Cl)c(Cl)c1Cl (stereo not drawn) [I.143]	–	70%	–
COC(=O)[C@H](CSC(=O)N(C)C)NC(=O)c1sc(Cl)c(Cl)c1Cl [I.142]	–	70%	–
CCOC(=O)C(CC(N)=O)NC(=O)c1sc(Cl)c(Cl)c1Cl (stereo not drawn) [I.046]	70%	70%	–
CCOC(=O)C(CC(F)(F)F)NC(=O)c1sc(Cl)c(Cl)c1Cl (stereo not drawn) [I.048]	70%	70%	–
COC(=O)[C@H](CCCNC(=N)N)NC(=O)c1sc(Cl)c(Cl)c1Cl [I.008]	90%	–	efficacy ([1]; 31 ppm of active ingredient, listed as I1.008): at least 80%
CCOC(=O)C(C#N)NC(=O)c1sc(Cl)c(Cl)c1Cl (stereo not drawn) [I.009]	70%	70%	–
CCOC(=O)C(C)N(C(=O)c1sc(Cl)c(Cl)c1Cl)C1CC1 (stereo not drawn) [I.110]	70%	70%	–
C[C@H](NC(=O)c1sc(Cl)c(Cl)c1Cl)C(N)=O [I.119]	–	–	efficacy [2]: at least 70%
CCOC(=O)C(NC(=O)c1sc(Cl)c(Cl)c1Cl)c1ccccc1 (stereo not drawn) [I.064]	70%	70%	–
CON(C(=O)c1sc(Cl)c(Cl)c1Cl)C(C)C(=O)O (stereo not drawn) [I.111]	–	–	efficacy ([1]; 125 ppm of active ingredient, listed as 1.111): 70%
COC(=O)[C@H](CC(=O)OC(C)(C)C)NC(=O)c1sc(Cl)c(Cl)c1Cl [I.136]	–	70%	–
CCOC(=O)C(CSC(C)=O)NC(=O)c1sc(Cl)c(Cl)c1Cl (stereo not drawn) [I.145]	–	70%	–
COC(=O)C(C)N(OC)C(=O)c1sc(Cl)c(Cl)c1Cl (stereo not drawn) [I.109]	90%	70%	–
